Results are given in words; binding and its absence hold for the method and conditions named. Some results given as binding are weak or reduced against the parent protein; the word gives no strength.
Key:
[1] = molecular target: recombinant full-length mammalian Tpr (6xHis-Tpr) (not stated (mammalian)) (UniProt P12270); test: ELISA; solid phase binding assay: Maxisorp microtiter plates coated with 25 ng of Tpr or C-Tpr; increasing concentrations of the soluble protein; bound protein detected with primary antibodies and horseradish peroxidase-conjugated secondary antibodies (TMB); apparent Kd from B = Bmax x Y/(Kd + Y); CRM1, NES and RanGTP at equimolar concentrations; both purified
[2] = molecular target: recombinant full-length mammalian Tpr (6xHis-Tpr) (not stated (mammalian)) (UniProt P12270); test: ELISA; solid phase assay: 100 nM importin β on Tpr adsorbed to microtiter wells, without or with 0.1, 0.2, 0.5 and 1 μM RanGMP-PNP or RanGDPβS; both purified
[3] = molecular target: recombinant full-length mammalian Tpr (6xHis-Tpr) (not stated (mammalian)) (UniProt P12270); test: ELISA; competition-binding assay: plates coated with 25 ng Tpr; importin β constant at 60 nM, ΔIBB-importin α 0-600 nM; importin β detected by anti-S-tag, ΔIBB-importin α by its antibody; percentage of highest level of binding; both purified

The chains behind the UniProt entries cited, without tags or fusion partners. Where a name states a change or a piece, a line headed by the entry shows the natural chain unless it says otherwise.
UniProt P12270: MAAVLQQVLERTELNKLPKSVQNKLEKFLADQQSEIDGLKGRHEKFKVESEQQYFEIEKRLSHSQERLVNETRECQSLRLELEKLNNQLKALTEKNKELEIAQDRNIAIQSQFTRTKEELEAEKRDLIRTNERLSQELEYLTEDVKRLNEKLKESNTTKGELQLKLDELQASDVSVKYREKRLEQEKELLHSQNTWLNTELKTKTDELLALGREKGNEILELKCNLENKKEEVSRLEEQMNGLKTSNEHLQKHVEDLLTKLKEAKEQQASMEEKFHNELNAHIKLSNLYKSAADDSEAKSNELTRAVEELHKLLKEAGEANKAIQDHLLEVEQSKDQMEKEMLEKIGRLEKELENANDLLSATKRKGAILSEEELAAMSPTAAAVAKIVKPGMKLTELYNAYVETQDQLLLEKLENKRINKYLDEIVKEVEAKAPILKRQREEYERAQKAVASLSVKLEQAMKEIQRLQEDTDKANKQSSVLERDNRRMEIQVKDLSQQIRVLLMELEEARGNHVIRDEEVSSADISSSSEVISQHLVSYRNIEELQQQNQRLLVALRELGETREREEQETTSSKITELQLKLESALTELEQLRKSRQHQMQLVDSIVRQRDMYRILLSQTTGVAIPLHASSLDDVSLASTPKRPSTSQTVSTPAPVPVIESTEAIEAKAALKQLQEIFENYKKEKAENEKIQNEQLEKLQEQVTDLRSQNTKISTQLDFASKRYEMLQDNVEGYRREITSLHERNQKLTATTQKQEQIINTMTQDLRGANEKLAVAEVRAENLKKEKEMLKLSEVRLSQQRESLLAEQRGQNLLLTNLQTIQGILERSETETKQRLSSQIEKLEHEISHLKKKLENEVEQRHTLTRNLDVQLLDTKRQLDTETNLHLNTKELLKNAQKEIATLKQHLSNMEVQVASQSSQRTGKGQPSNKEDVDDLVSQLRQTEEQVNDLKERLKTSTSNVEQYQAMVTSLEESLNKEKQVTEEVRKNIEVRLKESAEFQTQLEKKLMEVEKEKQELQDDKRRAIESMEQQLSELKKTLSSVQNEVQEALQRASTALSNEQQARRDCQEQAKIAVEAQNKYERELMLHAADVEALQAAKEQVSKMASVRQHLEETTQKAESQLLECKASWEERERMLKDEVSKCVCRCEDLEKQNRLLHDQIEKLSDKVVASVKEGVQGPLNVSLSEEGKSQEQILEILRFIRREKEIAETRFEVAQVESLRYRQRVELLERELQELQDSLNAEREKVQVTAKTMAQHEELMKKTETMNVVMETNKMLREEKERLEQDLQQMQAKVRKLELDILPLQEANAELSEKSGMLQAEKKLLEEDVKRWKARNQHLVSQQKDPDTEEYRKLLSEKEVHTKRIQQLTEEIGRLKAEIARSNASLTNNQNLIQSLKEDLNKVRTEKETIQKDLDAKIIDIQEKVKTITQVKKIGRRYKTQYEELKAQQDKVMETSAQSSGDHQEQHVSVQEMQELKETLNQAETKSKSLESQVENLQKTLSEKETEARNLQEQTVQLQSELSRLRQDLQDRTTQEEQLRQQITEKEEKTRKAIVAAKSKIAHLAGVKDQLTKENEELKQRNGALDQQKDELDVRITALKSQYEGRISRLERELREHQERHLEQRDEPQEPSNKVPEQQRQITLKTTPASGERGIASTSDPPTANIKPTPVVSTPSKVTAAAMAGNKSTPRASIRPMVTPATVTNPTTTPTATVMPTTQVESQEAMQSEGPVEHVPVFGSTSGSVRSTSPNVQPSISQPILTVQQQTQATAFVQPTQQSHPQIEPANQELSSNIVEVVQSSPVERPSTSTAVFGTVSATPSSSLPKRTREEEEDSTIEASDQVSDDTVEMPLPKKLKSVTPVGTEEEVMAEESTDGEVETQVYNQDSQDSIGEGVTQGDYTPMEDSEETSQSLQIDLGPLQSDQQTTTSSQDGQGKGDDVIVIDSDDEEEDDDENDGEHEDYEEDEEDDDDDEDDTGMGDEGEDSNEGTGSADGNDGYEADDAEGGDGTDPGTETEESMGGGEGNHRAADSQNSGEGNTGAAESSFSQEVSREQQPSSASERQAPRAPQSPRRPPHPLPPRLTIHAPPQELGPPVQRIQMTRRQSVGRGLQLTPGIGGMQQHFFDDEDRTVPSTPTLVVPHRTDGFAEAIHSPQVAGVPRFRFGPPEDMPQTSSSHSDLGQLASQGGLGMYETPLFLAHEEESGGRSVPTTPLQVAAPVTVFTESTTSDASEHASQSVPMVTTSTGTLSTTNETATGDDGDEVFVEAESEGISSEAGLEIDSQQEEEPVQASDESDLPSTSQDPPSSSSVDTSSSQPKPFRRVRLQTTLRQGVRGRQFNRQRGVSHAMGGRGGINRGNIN
UniProt Q14974: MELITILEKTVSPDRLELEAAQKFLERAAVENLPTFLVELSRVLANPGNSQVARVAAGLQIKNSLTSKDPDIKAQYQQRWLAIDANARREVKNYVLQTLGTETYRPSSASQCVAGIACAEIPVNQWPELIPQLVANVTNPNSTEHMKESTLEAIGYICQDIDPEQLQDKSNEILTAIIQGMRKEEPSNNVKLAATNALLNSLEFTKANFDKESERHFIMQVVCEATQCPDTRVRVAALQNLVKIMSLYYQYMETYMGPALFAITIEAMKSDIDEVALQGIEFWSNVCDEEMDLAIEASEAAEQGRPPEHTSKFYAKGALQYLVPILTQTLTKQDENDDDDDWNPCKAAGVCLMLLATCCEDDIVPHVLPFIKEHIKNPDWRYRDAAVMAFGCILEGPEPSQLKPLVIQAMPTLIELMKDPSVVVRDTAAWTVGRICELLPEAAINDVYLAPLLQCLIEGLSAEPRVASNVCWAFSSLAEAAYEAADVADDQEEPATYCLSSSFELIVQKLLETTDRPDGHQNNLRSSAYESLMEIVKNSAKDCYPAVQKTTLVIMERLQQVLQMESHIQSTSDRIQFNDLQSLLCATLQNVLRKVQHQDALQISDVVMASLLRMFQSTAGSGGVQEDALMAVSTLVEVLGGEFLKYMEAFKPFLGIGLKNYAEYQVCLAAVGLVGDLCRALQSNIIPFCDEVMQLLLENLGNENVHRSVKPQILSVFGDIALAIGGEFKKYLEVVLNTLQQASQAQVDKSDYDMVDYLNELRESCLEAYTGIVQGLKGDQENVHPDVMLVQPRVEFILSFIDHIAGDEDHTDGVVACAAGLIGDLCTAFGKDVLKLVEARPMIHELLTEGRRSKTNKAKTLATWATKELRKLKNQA

binding [1]	binding [2]	binding [3]	Substance
no binding			importin β I178D (from UniProt Q14974 1-876)
no binding			CRM1 (from UniProt O14980 1-1071) (other; other documents disagree on this pair)
	binds	binds	His-S-tag-importin β (from UniProt Q14974 1-876)

Reference: publication PMC2770460
